From PubChem BioAssay AID493014 (National Center for Advancing Translational Sciences (NCATS), 2011)
The other results are listed elsewhere or left out. The main result of the screen is listed elsewhere. These columns were measured beside it and carry no call. The list favours compounds with an active or inconclusive main result. Words in brackets tell the shape of the fitted curve; partial curves, single points and poor fits give uncertain potencies.

Test: qHTS Assay to Find Inhibitors of Chronic Active B-Cell Receptor Signaling
Settings: ABC-DLBCL IkBa-CBG/CBR reporter, luminescence ratio (green luciferase fused to IkBa over red control in TMD8 lymphoma cells), 4 h
Outline: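 TMD8 human ABC-DLBCL cells with doxycycline-inducible IκBα–green luciferase fusion and unfused red luciferase, in 0.5% FBS medium; compounds up to 46 uM, 4 h at 37C. Green/red luminescence ratio, filter-overlap corrected, fitted to concentration-response curves.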

[1] = measured here: CBR red luminescence, cell number
[2] = measured here: IkBa-CBG green luminescence

SMILES	AC50 [1]	AC50 [2]
COc1ccc2c(c1)C(=O)N1[C@H]3c4cc(OC)ccc4OC[C@@H]3[C@H](c3ccccc3)[C@]1(C)C(=O)N2	9.2 µM [falling, partial curve, poor fit]	18.4 µM [rising, partial curve, poor fit]
COc1ccc(C)cc1S(=O)(=O)Nc1cc2c3c(c1)CCN3C(=O)CC2	29.1 µM [rising, single point]	18.4 µM [falling, partial curve, poor fit]
Cc1ccc(-n2ncc3c(NCCCn4ccnc4)ncnc32)cc1Cl	12.6 µM [falling, partial curve]	
CC(C)CC(COCc1cccc(Cl)c1)N1CCN(C(=O)c2ccc(C(F)(F)F)cc2)CCC1=O (stereo unspecified)	23.1 µM [falling, single point]	
Cc1ccc(-c2nc3nc4ccccc4nc3n2Cc2ccco2)cc1	7.31 µM [falling, partial curve]	
C#CCSc1nnc(-c2sc3ccccc3c2Cl)o1	3.16 µM [rising, partial curve, poor fit]	
CNNC(=S)Nc1cccc(C(F)(F)F)c1	0.794 µM [rising, full curve, poor fit]	
COc1cccc(CN2CCN(Cc3cccc(Oc4ccccc4)c3)CC2)c1OC	0.447 µM [rising, partial curve, poor fit]	
Nc1ccc2oc(-c3ccc4nc[nH]c4c3)nc2c1	11.6 µM [falling, single point]	
O=C(Cc1ccc(F)cc1)NCc1cccnc1	6.31 µM [rising, single point]	
Cc1ccc(-n2c(C)c(C)c3c(NCCN(C)C)ncnc32)cc1	35.5 µM [rising, single point]	
c1ccc(-c2cn3nc(-c4ccccc4)c(-c4ccccc4)nc3n2)cc1	6.31 µM [rising, partial curve]	
Cc1cccc(NC(=O)CN2CCc3cc4c(cc3C2)OCCCO4)c1	20 µM [falling, single point]	
CCc1cc(C(=O)c2ccc(OC)cc2)c(NC(=O)COCC(=O)O)s1	8.91 µM [falling, partial curve, poor fit]	
CCOc1ccc(C2NC(=O)C(C#N)=C(S)N2c2ccc(OC)cc2)cc1OC (stereo unspecified)	31.6 µM [falling, single point]	15.8 µM [falling, single point]
CCOC(=O)C1=C(C)NC(C)=C(C(=O)OCC)C1c1cc2ccc(C)cc2[nH]c1=O	1.12 µM [rising, full curve, poor fit]	
CC(=C\c1ccco1)/C=C1/SC(=S)N(CC(=O)O)C1=O	7.08 µM [rising, partial curve, poor fit]	
O=C(Cn1[nH]c(=O)c2ccccc2c1=O)Nc1ccc(-c2nnc3n2CCCCC3)cc1	29.1 µM [falling, single point]	
CCOc1cc2[nH]c(=S)n(C3CC3)c(=O)c2cc1OCC	0.562 µM [falling, full curve, poor fit]	
CCN1C(=O)[C@H]2[C@@H](c3ccc(-c4ccc(F)cc4)c(OC)c3)N3CCCC[C@@]3(C(=O)OC)[C@H]2C1=O	29.1 µM [falling, partial curve, poor fit]	

SMILES	AC50 [1]	AC50 [2]
N#Cc1nc(Cc2ccccc2)oc1NCc1ccccc1Cl	10 µM [falling, partial curve, poor fit]	
O=C(/C=C/c1ccccc1)Nc1cccc(S(=O)(=O)Nc2ccccc2F)c1	9.2 µM [falling, partial curve]	
COc1cc(/C=N/n2nnnc2N)ccc1OCc1c(C)no[n+]1[O-]	6.51 µM [rising, single point]	
O=C(NCCOCc1ccc(Cl)cc1)c1ncn[nH]1	20.6 µM [rising, partial curve, poor fit]	
N#CC1(c2ccc(NC(=O)c3ccccc3F)cc2)CCCC1	20.6 µM [falling, single point]	
CC(C)(C)OC(=O)C(C(=O)OC(C)(C)C)c1ccc(Cl)nn1	11.2 µM [rising, partial curve, poor fit]	
CCCCOc1ccc2c(c1)C(=O)c1cc(O)ccc1-2	11.2 µM [rising, partial curve]	
CC(Oc1ccccc1)C(=O)Nc1ccccc1O (stereo unspecified)	5.17 µM [rising, single point]	
Cc1ccc(OCC(=O)N2N=C(C(F)(F)F)CC2(O)C(C)(C)C)cc1C (stereo unspecified)	11.6 µM [falling, partial curve, poor fit]	
COc1ccc(/C=N/Nc2ncnc3scc(-c4ccccc4)c23)cc1OC	0.058 µM [falling, full curve, poor fit]	
O=C(NNc1ccc(Cl)cc1)c1sccc1Cl	15.8 µM [falling, partial curve]	
O=C1c2ccccc2C(=O)N1c1n[nH]c(CCc2ccccc2)n1	22.4 µM [rising, partial curve, poor fit]	
Nc1c(N2CCCC2)c2ccccc2oc1=O	7.08 µM [falling, partial curve, poor fit]	
CC1(C)CC(C)(c2ccc(O)cc2O)N(c2cccc(Cl)c2)C(=S)N1 (stereo unspecified)	10.3 µM [falling, partial curve]	
CCCCOCC1CC(CC#CCN2CCCCC2)C(=O)O1 (stereo unspecified)	12.6 µM [rising, partial curve, poor fit]	
O=C(/C=C/NNC(=O)c1ccccc1O)c1ccccc1	11.2 µM [falling, partial curve]	
CCn1nc(C)c([N+](=O)[O-])c1C(=O)NNC(=O)c1ccccc1Cl	15.8 µM [falling, partial curve, poor fit]	
COc1cc(C2c3c(-c4ccccc4)n[nH]c3C(=O)N2c2ccccc2)ccc1O (stereo unspecified)	11.2 µM [falling, partial curve]	
C/C(=N\NC(=O)c1ccccc1)c1ccc(N2CCOCC2)cc1	11.6 µM [falling, partial curve]	
COc1cc(/C=C(/C(=O)O)c2ccc(-c3ccccc3)cc2)cc(OC)c1OC	35.5 µM [falling, single point]	

SMILES	AC50 [1]	AC50 [2]
COc1ccc2c(c1)CC/C(=C\C=C\c1ccccc1OC)C2=O	11.6 µM [falling, partial curve]	
C=CCn1c(-c2sc(-c3ccccc3)nc2C)n[nH]c1=S	22.4 µM [rising, single point]	35.5 µM [falling, single point]
CCCn1c(=O)c2[nH]c(-c3ccc(OCC(=O)Nc4ccc(C#N)cc4)cc3)nc2n(CCC)c1=O	5.8 µM [falling, single point]	
O=C(Nc1ccc(C(=O)O)cc1)Nc1cccc([N+](=O)[O-])c1	23.1 µM [falling, single point]	
CC1CCCN(S(=O)(=O)c2cc(C(=O)NCc3ccco3)ccc2Cl)C1 (stereo unspecified)	18.4 µM [falling, single point]	
CCOC(=O)Cn1nc(/C=C/c2ccc(C(C)C)cc2)ccc1=O	8.91 µM [rising, partial curve, poor fit]	
COC(=O)c1ccccc1Sc1c(/C=N/OCc2ccc(Cl)cc2)c(C(F)(F)F)nn1C	29.1 µM [falling, single point]	
O=C(Oc1cccc(NC(=O)c2ccco2)c1)c1cccc(S(=O)(=O)N2CCCC2)c1	20.6 µM [falling, partial curve]	
COc1ccc(CC2=C(O)c3ccccc3C(=O)C2=O)cc1	35.5 µM [falling, partial curve, poor fit]	
O=C(CCCc1nc(-c2ccccc2Cl)no1)NC1CCCC1	22.4 µM [falling, single point]	
CCOc1ccc(N2C(=O)CC(Sc3nc(CC(C)C)ccc3C#N)C2=O)cc1 (stereo unspecified)	35.5 µM [rising, single point]	
COc1cc(C=O)ccc1OCc1c(C)noc1C	0.82 µM [rising, full curve, poor fit]	
O=C(c1ccccc1SCc1ccccc1)N1CCCCCC1	0.1 µM [rising, full curve, poor fit]	
Cc1ccc(-n2c(C)cc(/C=N/NC(=O)c3ccc(CN4CCOCC4)cc3)c2C)cc1	1.12 µM [falling, full curve, poor fit]	
C#CCOCCOCCOCCNc1nc(N2CCN(C(=O)CCCCCCCCCCNC(=O)[C@H]([C@@H](C)CC)n3cc(CCCCN=C(N)N)nn3)CC2)nc(N2CCN(C(=O)CCCCCCCCCCNC(=O)[C@H](CCCCN)n3cc(C[C@@H](C)CC)nn3)CC2)n1	20.6 µM [rising, single point]	
O=C(NC1=NCCS1)Nc1ccccc1	35.5 µM [falling, single point]	
CCOc1ccc(N2C(=O)CC(N)C2=O)cc1 (stereo unspecified)	23.1 µM [falling, partial curve]	18.4 µM [rising, partial curve, poor fit]
CCOC(=O)C1(CCc2ccccc2)CCN(Cc2ccc(O)cc2)CC1	10 µM [falling, partial curve, poor fit]	
O=C(Nc1cccc(-c2cn3c(n2)SCC3)c1)c1ccc2ccccc2n1	10 µM [falling, partial curve, poor fit]	
CCOC(=O)/C=c1\s/c(=C\c2c(OC)ccc3ccccc23)c(=O)n1CC(=O)NCC1CCCO1 (stereo unspecified)	16.4 µM [rising, single point]	18.4 µM [falling, single point]

Molecules listed so far with a COOH group, in the order listed:
SMILES	AC50 [1]	AC50 [2]
CCc1cc(C(=O)c2ccc(OC)cc2)c(NC(=O)COCC(=O)O)s1	8.91 µM [falling, partial curve, poor fit]	
CC(=C\c1ccco1)/C=C1/SC(=S)N(CC(=O)O)C1=O	7.08 µM [rising, partial curve, poor fit]	
COc1cc(/C=C(/C(=O)O)c2ccc(-c3ccccc3)cc2)cc(OC)c1OC	35.5 µM [falling, single point]	
O=C(Nc1ccc(C(=O)O)cc1)Nc1cccc([N+](=O)[O-])c1	23.1 µM [falling, single point]	
